Measurements: PubChem BioAssay AID485318 (Broad Institute, 2010)
Fewer than 10 of roughly 1,400 compounds were called active.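 The calls were made as follows: active = fluorescence-lowering compounds whose fitted half-maximal concentration is at or below ten times the highest valid dose tested; inconclusive = flat curve at 30 to 70% inhibition, or poor fit; inactive = the rest.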 The list shows a part of the results.

Chains of the proteins cited; added tags and fusions are not shown. Lines headed by an entry give the natural chain unless they say otherwise; changes in a name come on top.
UniProt O15379: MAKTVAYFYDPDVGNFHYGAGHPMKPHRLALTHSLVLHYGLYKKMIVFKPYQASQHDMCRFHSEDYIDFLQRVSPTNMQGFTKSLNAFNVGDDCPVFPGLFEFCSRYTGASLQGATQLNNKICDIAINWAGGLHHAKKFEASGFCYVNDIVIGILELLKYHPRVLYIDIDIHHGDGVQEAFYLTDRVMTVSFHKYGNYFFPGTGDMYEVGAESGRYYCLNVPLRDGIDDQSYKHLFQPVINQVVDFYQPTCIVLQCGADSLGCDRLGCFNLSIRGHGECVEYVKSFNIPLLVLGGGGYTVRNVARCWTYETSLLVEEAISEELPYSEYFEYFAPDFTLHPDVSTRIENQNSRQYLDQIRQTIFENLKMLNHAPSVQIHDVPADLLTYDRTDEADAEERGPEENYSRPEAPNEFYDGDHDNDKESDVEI

Target: Histone deacetylase 3 (Homo sapiens) (UniProt O15379)
Assay: HDAC3 deacetylase inhibitors, dose response, counter-screen for JMJD2C/GASC1 demethylase inhibitor project, biochemical, fluorescence, cherry-picked samples (AID 485318);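 also: enzyme preincubated with compound before substrate and trypsin were added; 0% = neutral control wells and -100% = SAHA positive control wells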
Conditions: recombinant HDAC3, fluorogenic peptide/trypsin coupled; at 12 µM (top of the series)

Row | SMILES | activity change, negative = inhibition
1 | O=C(CSc1nc(O)c(Cc2ccccc2)c(=O)[nH]1)c1ccccc1 | inactive: -0.826%
2 | O=c1cc(-c2ccc(O)c(O)c2)oc2c(C3O[C@H](CO)[C@@H](O)[C@H](O)[C@H]3O)c(O)cc(O)c12 (some centres undefined) | inactive: 0.405%
3 | CCN(Cc1nc(-c2ccccc2)no1)C(=O)c1ccco1 | inactive: -0.489%
4 | Cc1ccc(S(=O)(=O)NC(=O)NC(C)Cc2ccccc2)cc1 (centres undefined) | inactive: -0.428%
5 | C[C@H](CO)N1C[C@H](C)[C@@H](CN(C)Cc2ccc(C(=O)O)cc2)Oc2c(NC(=O)c3ccncc3)cccc2C1=O | inactive: -0.324%
6 | CC1CCCC(NC(=O)COC(=O)c2ccc(N(C)C)cc2)C1C (centres undefined) | inactive: 0.088%
7 | CN(C)/C=C1/Nc2ccccc2C1=O | inactive: -0.292%
8 | Cc1ccc(C(=O)NNC(=O)c2ccc3ccccc3c2O)cc1 | inactive: 0.488%
9 | COC(=O)c1cc(S(=O)(=O)N2CCN(c3ccc(F)cc3)CC2)c[nH]1 | inactive: -0.547%
10 | Cc1[nH]n(-c2ccccc2)c(=O)c1N=Nc1nccs1 | inactive: 0.586%
11 | Cc1cccn2c(=O)c(/C=N/O)c(N3CCCC3)nc12 | inactive: 0.603%
12 | O=[N+]([O-])c1ccc(N2CCN(S(=O)(=O)c3ccc(Cl)cc3)CC2)cc1NCc1cccnc1 | inactive: -0.0715%
13 | C[C@H](CO)N1C[C@H](C)[C@@H](CN(C)Cc2ccc(Cl)c(Cl)c2)Oc2c(NC(=O)c3ccncc3)cccc2C1=O | inactive: 0.697%
14 | O=C(COC(=O)Cc1ccccc1F)Nc1ccc(SC(F)F)cc1 | inactive: 0.00792%
15 | O=C(CN1C(=O)NC2(CCCC2)C1=O)Nc1nc(-c2ccccc2)cs1 | inactive: -0.418%
16 | O=c1c2c(nc3c(-c4cccc5ccccc45)c[nH]n13)CCC2 | inactive: -0.27%
17 | CCSCC1COC(c2cccn2Cc2ccc(C)cc2)=N1 (centres undefined) | inactive: 0.82%
18 | Fc1ccc(NC(=S)Nc2ccc(Cl)cc2Cl)cc1 | inactive: 0.249%
19 | O=C(c1cc2ccccc2oc1=O)N1CCN(CCc2ccccc2)CC1 | inactive: -0.392%
20 | NC(=O)C1CCN(c2nc(-c3ccc4c(c3)OCCO4)cs2)CC1 | inactive: 0.329%
21 | N#Cc1cnn(CC2CCCCC2)c1N | inactive: 0.0338%
22 | Cc1cccn2c(=O)c(C(=O)NC3CC(C)CC(C)(C)C3)c(O)nc12 (centres undefined) | inactive: -0.47%
23 | N#Cc1cnc(NOCc2ccc(Cl)cc2)nc1 | inactive: -0.162%

Row | SMILES | activity change, negative = inhibition
24 | CCNC(=S)NC(=NCc1cccnc1)Nc1nc(C)cc(C)n1 | inactive: 0.0784%
25 | C=CCn1c(N)c(-c2nc3ccccc3n2C)sc1=S | inactive: 0.0537%
26 | Cc1cc(C)cc(C(=O)N2CCC(C(N)=O)CC2)c1 | inactive: 0.719%
27 | Cc1ccc(S(=O)(=O)N2CCN(C(=O)N3CCOCC3)CC2)cc1C | inactive: -0.219%
28 | COCCn1c(N)c(C(=O)NCC2CCCO2)c2nc3ccccc3nc21 (centres undefined) | inactive: 0.0227%
29 | COc1ccc(S(=O)(=O)N(C)C[C@H]2Oc3ccc(NS(=O)(=O)c4cccs4)cc3CC(=O)N([C@H](C)CO)C[C@H]2C)cc1 | inactive: 0.647%
30 | Cc1cc(C(F)(F)F)nn1C(=O)c1cccnc1Cl | inactive: -0.181%
31 | Nc1c(C(=O)OCC(=O)Nc2ccc(Cl)cc2[N+](=O)[O-])[nH]c(=O)[nH]c1=O | inactive: 0.0517%
32 | CCC(=O)Nc1ccc(NC(=O)Cc2ccccc2)cn1 | inactive: 1.57%
33 | O=C(Cn1cnc2c(OCc3ccccc3)ncnc21)NCCN1CCOCC1 | inactive: 0.597%
34 | COc1ccc2[nH]c(=O)c(CN(CCCN(C)C)C(=O)Nc3ccc(F)cc3)cc2c1 | inactive: -0.145%
35 | CN(C)/C=C1\C(=O)NN=C1c1ccccc1 | inactive: 0.113%
36 | COc1ccc(-c2nc(C#N)c(NCc3ccc(F)cc3)o2)cc1OC | inactive: 0.641%
37 | CC[C@@]1(C(=O)OC)N[C@H](CN(C)C(=O)Nc2ccc(Cl)cc2)[C@@H]2C(=O)N(Cc3ccccc3)C(=O)[C@@H]21 | inactive: -0.29%
38 | C[C@H](CO)N1C[C@H](C)[C@@H](CN(C)C(=O)Nc2ccc(C(F)(F)F)cc2)Oc2c(NC(=O)Nc3ccc4c(c3)OCO4)cccc2C1=O | inactive: 1.11%
39 | COc1ccc(NC(=O)C2CCCCN2N)cc1OCC(C)C (centres undefined) | inactive: 0.00657%
40 | CC(=O)Nc1ccc2nc(CN3CCC(CO)(CCc4ccccc4)CC3)ccc2c1 | inactive: 0.293%
41 | COc1ccccc1CNC(=O)c1cc(-c2ccccc2)nn1CC1CC(c2cccnc2)=NO1 (centres undefined) | inactive: -0.0458%
42 | Cc1cccc(N2C(=O)C3C4C=CC(C4)C3C2=O)c1 (centres undefined) | inactive: -0.408%
43 | O=c1cc2oc3cc(O)c(O)cc3c(-c3ccccc3[N+](=O)[O-])c-2cc1O | inactive: -0.962%
44 | O=C(CSc1nc2ccccc2c(=O)n1Cc1ccc(C(=O)NC2CC2)cc1)NCc1ccco1 | inactive: 0.873%
45 | CN(C)CCN(C(=O)/C=C/c1cccs1)c1nc2ccc(F)cc2s1 | inactive: -0.147%
46 | CCn1c(SCC(=O)c2ccc(C)cc2)nnc1-c1ccoc1C | inactive: -0.314%

Row | SMILES | activity change, negative = inhibition
47 | O=C(Nc1ccccc1N1CCCCC1)c1cccc(F)c1 | inactive: 0.346%
48 | CCCCC(=O)Nc1ccccc1N1CCN(c2ccc(F)cc2)CC1 | inactive: -0.278%
49 | CCn1c(=O)c(C(=O)NCCc2ccc(Cl)cc2)c(O)c2ccccc21 | inactive: -0.119%
50 | CCOc1ccc(NC(=O)NC(=O)N(C(C)C)S(C)(=O)=O)cc1 | inactive: 0.676%
51 | CCO[C@@H]1OC(C(=O)NC2CC2)=C[C@H](c2c[nH]c3ccccc23)[C@H]1CCCO | inactive: -0.482%
52 | CCCN(C(=O)Cc1ccc(S(=O)(=O)N2CCOCC2)s1)c1c(N)n(Cc2ccccc2)c(=O)[nH]c1=O | inactive: -0.39%
53 | CCOc1ccc(NC(=O)CN(C)CC(=O)Nc2cc(Cl)ccc2C#N)cc1OCC | inactive: -0.412%
54 | O=C(Nc1nncs1)c1ccc2c(c1)OCO2 | inactive: 0.282%
55 | COc1ccc(C(=O)NC2CC3CCCC(C2)N3Cc2ccccc2)cc1 (centres undefined) | inactive: 0.361%
56 | COc1ccc2c(C(=O)NCCCCO)c(-c3ccc(S(C)(=O)=O)cc3)sc2c1 | inactive: 0.45%
57 | CC(CN1CCCC1)OC(=O)COc1ccccc1 (centres undefined) | inactive: -0.195%
58 | CCOC(=O)c1c(NC(=O)C2CCCO2)sc2c1CCC2 (centres undefined) | inactive: -0.418%
59 | N=c1n(CC(=O)c2cccc([N+](=O)[O-])c2)c2ccccc2n1Cc1ccccc1 | inactive: 0.394%
60 | O=C(C1CCN(S(=O)(=O)c2ccc3ccccc3c2)CC1)N1CCN(c2ncccn2)CC1 | inactive: 0.874%
61 | CCN(Cc1cc2cc(OC)ccc2[nH]c1=O)C(=O)c1ccncc1 | inactive: 0.128%
62 | COCCn1c(SCC(=O)Nc2cc(C(C)(C)C)nn2-c2ccccc2)nc2ccccc2c1=O | inactive: 0.716%
63 | CCN(C[C@H]1N[C@@](Cc2ccccc2)(C(=O)OC)[C@H]2C(=O)N(C)C(=O)[C@@H]12)S(=O)(=O)c1ccccc1 | inactive: -0.222%
64 | COc1ccc(S(=O)(=O)N2CCC(C(=O)N3CCc4ccccc4C3)CC2)cc1 | inactive: 0.11%
65 | CC(=O)Nc1sc2c(c1CN1CCN(C)CC1)CCCC2 | inactive: -0.176%
66 | COCCCNC(=O)CC1C[C@H](C(=O)N2CCOCC2)[C@@]2(C)c3[nH]c4ccccc4c3CCN2C1=O (some centres undefined) | inactive: 0.685%
67 | COC(=O)C(Cc1ccccc1)NC(=O)COc1ccc(C(C)(C)C)cc1 (centres undefined) | inactive: 0.169%
68 | Oc1ccc(/C=N/Nc2ncc(Br)cn2)c(O)c1 | inactive: -0.276%
69 | CC1Oc2ccccc2N(Cc2ccccc2Cl)C1=O (centres undefined) | inactive: 0.423%

A draw from above in order of number of heavy atoms, ascending:
Row | SMILES | activity change, negative = inhibition
11 | Cc1cccn2c(=O)c(/C=N/O)c(N3CCCC3)nc12 | inactive: 0.603%
4 | Cc1ccc(S(=O)(=O)NC(=O)NC(C)Cc2ccccc2)cc1 (centres undefined) | inactive: -0.428%
31 | Nc1c(C(=O)OCC(=O)Nc2ccc(Cl)cc2[N+](=O)[O-])[nH]c(=O)[nH]c1=O | inactive: 0.0517%
64 | COc1ccc(S(=O)(=O)N2CCC(C(=O)N3CCc4ccccc4C3)CC2)cc1 | inactive: 0.11%

The results go on.

Row | SMILES | activity change, negative = inhibition
70 | CC1C(=O)N(Cc2ccc([N+](=O)[O-])cc2)c2ccccc2N1C(=O)C1CC1 (centres undefined) | inactive: 0.00355%
71 | Cc1nnc(SCc2nc3ccccc3[nH]2)s1 | inactive: -0.52%
72 | O=c1nc(SCc2cccc(C(F)(F)F)c2)nc2ccccn12 | inactive: 0.315%
73 | Nc1nn2c(-c3ccccc3)cc(=O)[nH]c2c1N=Nc1ccc(O)cc1 | inactive: -0.625%
74 | CC1=C(C#N)C(Nc2ccc(C)cn2)(C(F)(F)F)C(=O)N1 (centres undefined) | inactive: 0.146%
75 | OCc1ccc(OCCCOc2cccc3cccnc23)cc1 | inactive: -0.0166%
76 | O=C(NCC(c1ccco1)N1CCCCC1)c1ccc(OCc2ccccc2)cc1 (centres undefined) | inactive: -0.0798%
77 | c1ccc(-c2nc(-c3ccco3)cs2)nc1 | inactive: -0.223%
78 | Oc1cc2c(cc1O)C(c1ccccc1)CNCC2 (centres undefined) | inactive: 0.288%
79 | Fc1cccc(F)c1/C=N/N1CCOCC1 | inactive: 0.343%
80 | CCOC(=O)N1CCN(c2ccc(F)cc2[N+](=O)[O-])CC1 | inactive: 0.606%
81 | O=C(/C=C\c1ccc2c(c1)OCO2)NC1(C(=O)Nc2ccc3c(c2)OCO3)CCCCC1 | inactive: 0.815%
82 | CC(C)CC(=O)Nc1ccccc1N1CCOCC1 | inactive: -0.676%
83 | CCC(Sc1nc(N)c(NC(=O)c2ccc(Br)o2)c(=O)[nH]1)C(=O)O (centres undefined) | inactive: 0.305%
84 | O=C(CSc1nc(-c2ccccc2)cc(=O)[nH]1)NCc1ccc2c(c1)OCO2 | inactive: 1.31%
85 | CCC(=O)Nc1ccc(NC(=O)CSc2nnnn2C(C)C)cc1 | inactive: 0.553%
86 | COc1ccc(CCN=C(NS(=O)(=O)c2ccc(Cl)cc2)c2ccccc2)cc1 | inactive: 0.401%
87 | CCOC(=O)c1ccc(N2C(=O)C(C)=C(C)C2=O)cc1 | inactive: 0.048%
88 | Cc1cccc(-c2noc(CCC(=O)NC3CCCC3)n2)c1 | inactive: 0.292%
89 | C#CCOCCOCCOCCNc1nc(N2CCN(C(=O)CCCCCCCCCCNC(=O)[C@H](CO)n3cc(CCCSC)nn3)CC2)nc(N2CCN(C(=O)CCCCCCCCCCNC(=O)[C@H](CCCN=C(N)N)n3cc(C[C@@H](C)CC)nn3)CC2)n1 | inactive: -0.115%
